Test results from the supplement of paper PMC7024190.
Structures can show the parent of a compound that is named as a salt. Some of the results follow. Repeats in this data set agree poorly, so a single value says little.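 Human embryonic kidney cells were transiently transfected with a plasmid bearing a Renilla luciferase gene under the HSV-TK promoter. This first-round screen tests roughly ten thousand compounds for ones that increase reporter output.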

These compounds were tested on HEK 293FT (assay: log relative Renilla luciferase luminescence (reporter expression vs reference, reference not stated) (log (base not stated)); higher = higher recombinant reporter expression). Conditions: 10 µM; time after transfection 48 h.

Row | SMILES | log
1 | CNC(=O)c1c(I)c(C(=O)NCC(=O)Nc2c(I)c(C(=O)O)c(I)c(C(=O)NCCO)c2I)c(I)c(N(C)C(C)=O)c1I [Ioxaglic acid] | 0.105
2 | CC(=O)Oc1ccccc1C(=O)Oc1ccccc1C(=O)O [Acetylsalicylsalicylic acid] | -0.0311
3 | CC(C)n1c(/C=C/C(O)CC(O)CC(=O)O)c(-c2ccc(F)cc2)c2ccccc21 (centres undefined) [Fluvastatin sodium salt] | -0.0369
4 | N=C(N)NCc1cccc(I)c1 [Iobenguane sulfate] | 0.0878
5 | C[C@H]1NC(=O)NC1=O [Methylhydantoin-5-(D)] | -0.0488
6 | Cc1ccnc(NS(=O)(=O)c2ccc(N)cc2)n1 [Sulfamerazine] | 0.205
7 | NCCCC(O)(P(=O)(O)O)P(=O)(O)O [Alendronate sodium] | -0.108
8 | Nc1ccc(S(=O)(=O)Nc2cnc3ccccc3n2)cc1 [Sulfaquinoxaline sodium salt] | -0.102
9 | CNC[C@H](O)[C@@H](O)[C@H](O)[C@H](O)CO [Meglumine] | 0.0842
10 | CN(C)CCn1nnnc1SCC1=C(C(=O)O)N2C(=O)[C@@H](NC(=O)Cc3csc(N)n3)[C@H]2SC1 [Cefotiam hydrochloride] | -0.00821
11 | CC(=O)N[C@@H](CS)C(=O)O [Acetylcysteine] | -0.318
12 | CC(=O)O[C@H]1C[C@@]2(C)[C@@H](C[C@@H](O)[C@H]3[C@@]4(C)CC[C@@H](O)[C@@H](C)[C@@H]4CC[C@@]32C)/C1=C(\CCC=C(C)C)C(=O)O [Fusidic acid sodium salt] | -0.0661
13 | CCN(CC)CCOC(=O)c1ccc(N)cc1 [Procaine hydrochloride] | 0.0484
14 | Cc1c(C)c2c(c(C)c1O)CCC(C)(C(=O)O)O2 (centres undefined) [Trolox] | 0.0324
15 | CC[C@H](C)C(=O)O[C@H]1C[C@@H](C)C=C2C=C[C@H](C)[C@H](CC[C@@H]3C[C@@H](O)CC(=O)O3)[C@H]21 [Lovastatin] | -0.156
16 | CC(C)OC(=O)C(C)(C)Oc1ccc(C(=O)c2ccc(Cl)cc2)cc1 [Fenofibrate] | 0.0424
17 | Cc1c(O)c(=O)n(-c2ccccc2)n1C [Antipyrine, 4-hydroxy] | -0.00375
18 | Cc1cc2c(s1)Nc1ccccc1N=C2N1CCN(C)CC1 [Olanzapine] | -0.193
19 | CC(N)CCCC(C)(C)O (centres undefined) [Heptaminol hydrochloride] | 0.0404
20 | CN1CCCN=C1/C=C/c1cccc(O)c1 [Oxantel pamoate] | 0.105
21 | O=C(O)c1cc(/N=N/c2ccc(S(=O)(=O)Nc3ccccn3)cc2)ccc1O [Sulfasalazine] | -0.275
22 | CN/C(=N\CCSCc1nc[nH]c1C)NC#N [Cimetidine] | 0.0638
23 | CCc1cccc(CC)c1NC(=O)CN(CC(=O)O)CC(=O)O [Etifenin] | 0.0404
24 | CCCCc1ccc2[nH]c(NC(=O)OC)nc2c1 [Parbendazole] | 0.0739
25 | Nc1ncnc2c1ncn2C1OC(COP(=O)(O)O)C(O)C1O (centres undefined) [Adenosine 5'-monophosphate monohydrate] | 0.11

Row | SMILES | log
26 | CN1CCCN(C(c2ccccc2)c2ccc(Cl)cc2)CC1 (centres undefined) [Homochlorcyclizine dihydrochloride] | 0.0787
27 | C[C@@H]1C[C@H]2[C@@H]3CCC4=CC(=O)C=C[C@]4(C)[C@@]3(Cl)[C@@H](O)C[C@]2(C)[C@@]1(OC(=O)c1ccco1)C(=O)CCl [Mometasone furoate] | -0.0206
28 | CC1(C)S[C@@H]2[C@H](NC(=O)[C@H](N)c3ccccc3)C(=O)N2[C@H]1C(=O)O [Ampicillin trihydrate] | 0.0903
29 | O=c1n(CCCN2CCN(c3cccc(Cl)c3)CC2)nc2ccccn12 [Trazodone hydrochloride] | -0.271
30 | COc1ccc2cc([C@H](C)C(=O)O)ccc2c1 [Naproxen] | 0.0949
31 | Nc1cc(N2CCCCC2)nc(N)[n+]1[O-] [Minoxidil] | -0.0407
32 | O=C(O)c1ccccc1OP(=O)(O)O [Fosfosal] | -0.0916
33 | C/C=C(/C(=C/C)c1ccc(O)cc1)c1ccc(O)cc1 [Dienestrol] | -0.302
34 | Cc1ncc([N+](=O)[O-])n1CC(C)O (centres undefined) [Secnidazole] | -0.377
35 | CC(=O)O[C@H]1C(=O)[C@@]2(C)[C@H]([C@H](OC(=O)c3ccccc3)[C@]3(O)C[C@H](OC(=O)[C@H](O)[C@@H](NC(=O)c4ccccc4)c4ccccc4)C(C)=C1C3(C)C)[C@]1(OC(C)=O)CO[C@@H]1C[C@@H]2O [Paclitaxel] | 0.26
36 | CCCN(CCC)CCc1cccc2c1CC(=O)N2 [Ropinirole HCl] | -0.0898
37 | Cc1nc2ccccn2c(=O)c1CCN1CCC(C(=O)c2ccc(F)cc2)CC1 [Pirenperone] | 0.00934
38 | O=C(CCNNC(=O)c1ccncc1)NCc1ccccc1 [Nialamide] | 0.157
39 | N/C(=N\C(=O)c1nc(Cl)c(N)nc1N)NCc1ccccc1 [Benzamil hydrochloride] | 0.0949
40 | NC(=O)c1cnccn1 [Pyrazinamide] | 0.0695
41 | CC[C@@H]1C(=O)OC[C@@H]1Cc1cncn1C [Pilocarpine nitrate] | 0.104
42 | CC(C)NC[C@@H](O)COc1ccc(CC(N)=O)cc1 [(R)-(+)-Atenolol] | -0.117
43 | NS(=O)(=O)c1cc2c(cc1C(F)(F)F)NCNS2(=O)=O [Hydroflumethiazide] | 0.0878
44 | CS(=O)(=O)OCCCCOS(C)(=O)=O [Busulfan] | -0.0188
45 | Cc1c(NC(=O)c2cccnc2)c(=O)n(-c2ccccc2)n1C [Nifenazone] | 0.149
46 | COc1cccc2c1C(=O)c1c(O)c3c(c(O)c1C2=O)C[C@@](O)(C(C)=O)C[C@@H]3O[C@H]1C[C@H](N)[C@H](O)[C@H](C)O1 [Daunorubicin hydrochloride] | -0.0312
47 | C=CC1=C(C(=O)O)N2C(=O)[C@@H](NC(=O)/C(=N\O)c3csc(N)n3)[C@H]2SC1 [Cefdinir] | 0.171
48 | Cc1cn([C@H]2C=C[C@@H](CO)O2)c(=O)[nH]c1=O [Stavudine] | -0.015
49 | CC(=O)NS(=O)(=O)c1ccc(N)cc1 [Sulfacetamide sodic hydrate] | 0.0484
50 | CCN(CC)CC(=O)Nc1c(C)cccc1C [Lidocaïne hydrochloride] | 0.0695

Six compounds out of the list, ordered by formula weight, descending.
Row | SMILES | log
35 | CC(=O)O[C@H]1C(=O)[C@@]2(C)[C@H]([C@H](OC(=O)c3ccccc3)[C@]3(O)C[C@H](OC(=O)[C@H](O)[C@@H](NC(=O)c4ccccc4)c4ccccc4)C(C)=C1C3(C)C)[C@]1(OC(C)=O)CO[C@@H]1C[C@@H]2O [Paclitaxel] | 0.26
29 | O=c1n(CCCN2CCN(c3cccc(Cl)c3)CC2)nc2ccccn12 [Trazodone hydrochloride] | -0.271
28 | CC1(C)S[C@@H]2[C@H](NC(=O)[C@H](N)c3ccccc3)C(=O)N2[C@H]1C(=O)O [Ampicillin trihydrate] | 0.0903
36 | CCCN(CCC)CCc1cccc2c1CC(=O)N2 [Ropinirole HCl] | -0.0898
50 | CCN(CC)CC(=O)Nc1c(C)cccc1C [Lidocaïne hydrochloride] | 0.0695
32 | O=C(O)c1ccccc1OP(=O)(O)O [Fosfosal] | -0.0916

Going on with the list:

Row | SMILES | log
51 | CC(=O)OCC(=O)[C@@]12OC(C)(C)O[C@@H]1C[C@H]1[C@@H]3C[C@H](F)C4=CC(=O)C=C[C@]4(C)[C@@]3(F)[C@@H](O)C[C@@]12C [Fluocinonide] | 0.00816
52 | c1ccc2c(CC3=NCCN3)cccc2c1 [Naphazoline hydrochloride] | 0.00934
53 | CO[C@@H]1[C@@H](O[C@@H]2O[C@H](C)[C@@H](O[C@H]3C[C@@](C)(O)[C@@H](OC(=O)CC(C)C)[C@H](C)O3)[C@H](N(C)C)[C@H]2O)[C@@H](CC=O)C[C@@H](C)[C@@H](O)/C=C/C=C/C[C@@H](C)OC(=O)C[C@H]1OC(C)=O [Josamycin] | 0.0822
54 | CC(=O)CC(c1ccccc1)c1c(O)c2ccccc2oc1=O (centres undefined) [Warfarin] | -0.185
55 | OCCN(CCO)c1nc(N2CCCCC2)c2nc(N(CCO)CCO)nc(N3CCCCC3)c2n1 [Dipyridamole] | -0.0818
56 | O=C(O)c1ccccc1C(=O)Nc1ccc(S(=O)(=O)Nc2nccs2)cc1 [Phthalylsulfathiazole] | 0.0486
57 | CN(c1nccc(=O)[nH]1)C1CCN(c2nc3ccccc3n2Cc2ccc(F)cc2)CC1 [Mizolastine] | -0.0838
58 | CN1CCN(C(c2ccccc2)c2ccccc2)CC1 [Cyclizine hydrochloride] | 0.0967
59 | N[C@@H](Cc1cc(I)c(Oc2ccc(O)c(I)c2)c(I)c1)C(=O)O [Liothyronine] | 0.00849
60 | CN1CCC(=C2c3ccccc3Sc3ccccc32)CC1 [Pimethixene maleate] | 0.181
61 | C#C[C@]1(O)CC[C@H]2[C@@H]3CCC4=CCCC[C@@H]4[C@H]3CC[C@@]21C [Lynestrenol] | -0.614
62 | C[C@H](CCC(=O)O)[C@H]1CC[C@H]2[C@@H]3[C@@H](O)C[C@@H]4C[C@H](O)CC[C@]4(C)[C@H]3CC[C@]12C [Urosiol] | 0.00719
63 | O=C(CCCN1CCN(c2ccccn2)CC1)c1ccc(F)cc1 [Azaperone] | 0.115
64 | NC[C@@H]1O[C@@H](O[C@H]2[C@H](O)[C@@H](O[C@H]3O[C@H](CO)[C@@H](O)[C@H](N)[C@H]3O)[C@H](N)C[C@@H]2N)[C@@H](O)[C@H](O)[C@H]1O [Kanamycin A sulfate] | -0.124
65 | CC1CC(OC(=O)c2ccccc2O)CC(C)(C)C1 (centres undefined) [Homosalate] | 0.157
66 | COC(=O)C1=C(C#N)NC(C)=C(C(=O)OC(C)C)C1c1cccc([N+](=O)[O-])c1 (centres undefined) [Nilvadipine] | 0.0914
67 | CN1CCN(C2=Nc3ccccc3Oc3ccc(Cl)cc32)CC1 [Loxapine succinate] | 0.149
68 | N=C(NCCCCCCNC(=N)NC(=N)Nc1ccc(Cl)cc1)NC(=N)Nc1ccc(Cl)cc1 [Chlorhexidine] | 0.125
69 | NCc1ccccc1CC(=O)N[C@@H]1C(=O)N2C(C(=O)O)=C(CSc3nnnn3CC(=O)O)CS[C@H]12 [Ceforanide] | 0.02
70 | C[N+]1(C)CCC(OC(=O)C(O)(c2ccccc2)C2CCCC2)C1 (centres undefined) [Glycopyrrolate] | -0.0555
71 | N#Cc1ccc(C(c2ccc(C#N)cc2)n2cncn2)cc1 [Letrozole] | 0.0444
72 | Clc1ccc(CCC(Cn2ccnc2)Sc2c(Cl)cccc2Cl)cc1 (centres undefined) [Butoconazole nitrate] | -0.0974
73 | O=C(O)Cc1ccc(-c2ccccc2)cc1 [Felbinac] | 0.0262
74 | C[C@@H]1C[C@H]2[C@@H]3C[C@H](F)C4=CC(=O)C=C[C@]4(C)[C@@]3(F)[C@@H](O)C[C@]2(C)[C@@]1(O)C(=O)CO [Flumethasone] | -0.0157
